# Source: patent publication US20240358683A1, “COMPOSITION FOR PREVENTING OR TREATING NEURODEGENERATIVE DISEASE COMPRISING COMPOUND INDUCING EXPRESSION OF ANTI-AGING GENE KLOTHO” (KLOTHO SCIENCES, priority 2021, published 2024)
# Some results were stated once for a whole list of compounds, not compound by compound.
# System: klotho (KL) gene
# Test: Quantitative evaluation of klotho (KL) gene expression level using general PCR in RPTEC cells
# Assay type: cell-based, human
# Conditions: 2.5 μM, 6 hours, vs Comparative Example 1, FIG. 5
# Method: After RPTEC cells, which are epithelial cells of the proximal tubule of the human kidneys, were each treated with the compounds of Examples 7 to 10 at 2.5 μM for 6 hours, RNA was extracted from the cells, and cDNA was prepared from the extracted RNA using a Superscript II kit from Thermo Fisher Scientific, Inc., and then general PCR was performed.
# Information on the primers used in the experiment is as follows. • KL-F […] (SEQ ID NO: 1) • KL-R […] (SEQ ID NO: 2) • GAPDH-F […] (SEQ ID NO: 3) • GAPDH-R […] (SEQ ID NO: 4)
# The DNA amplified by PCR was confirmed by staining with ethidium bromide after electrophoresis on an agarose gel, and the amounts of DNA in the band were quantitatively compared using the SPEedyQuant program, and are illustrated in FIG. 5.
row,Compound,"expression level of the klotho (KL) gene, general PCR"
1,"Clc1ccc(Nc2nc3cc4ccccc4cc3o2)cc1Cl [Example 8, N-(3,4-dichlorophenyl)naphtho[2,3-d]oxazol-2-amine]",much higher than that in Comparative Example 1
2,"Cc1ccc2oc(Nc3ccc(F)c(F)c3)nc2c1 [Example 9, N-(3,4-difluorophenyl)-5-methylbenzo[d]oxazol-2-amine]",much higher than that in Comparative Example 1
3,"Fc1ccc(Nc2nc3ccccc3o2)cc1F [Example 10, N-(3,4-difluorophenyl)benzo[d]oxazol-2-amine]",much higher than that in Comparative Example 1
